The list shows only some results of the screen, not a fair sample: it is rich in T/C values a quarter to a half above the control, in often repeated tests (any T/C) and in doses without a T/C. Other doses and runs of a compound stand elsewhere. T/C is the treated group as % of the vehicle group. Schedules are NCI's codes, read here as Q, the interval in days (D) or hours (H), X, the number of doses. Some T/C values carry the count of animals alive at the toxicity check (mostly the fifth day); where none is given, no animal had died by that day. Some entries were tested several times; the values are given in rising order. Additions like (4×) say how often a value occurs here. Some entries give survivors of the animals treated and no T/C: the source holds a T/C of zero for them, seemingly a mark for toxic or unscored doses. Survivors were counted at the toxicity check, usually on the fifth day, unless a day is given; later deaths do not show.
Test system: BDF1 mice, Adenocarcinoma 755 s.c., tumor weight T/C
Assay: NCI In Vivo Anticancer Drug Screen. Data for tumor model Adenocarcinoma 755 (subcutaneous) in B6D2F1 (BDF1) mice
Details: T/C endpoint: mean tumor weight, higher T/C = larger tumour; for T/C: evaluated on day 12
Summary of the method: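 Readout: T/C, i.e. treated-group measurement over vehicle-control measurement. Endpoint is survival or tumor size in tumor-bearing mice given compound.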

[1] = dose: 100.0 mg/kg/injection, schedule: Q01DX011 (ip), vehicle: carboxymethylcellulose (CMC)
[2] = dose: 1.0 mg/kg/injection, schedule: Q01DX011 (ip), vehicle: methylcellulose (MC)
[3] = dose: 2.0 mg/kg/injection, schedule: Q01DX011 (ip), vehicle: methylcellulose (MC)
[4] = dose: 2.5 mg/kg/injection, schedule: Q01DX011 (ip), vehicle: methylcellulose (MC)
[5] = dose: 25.0 mg/kg/injection, schedule: Q01DX011 (ip), vehicle: methylcellulose (MC)

For `O=C(Nc1ccc(C2=NCCS2)cc1)c1ccc(C(=O)Nc2ccc(C3=NCCS3)cc2)cc1`, the T/C (dose: 15.0 mg/kg/injection, schedule: Q01DX011 (ip), vehicle: methylcellulose (MC)) was 135 % of control and the T/C (dose: 60.0 mg/kg/injection, schedule: Q01DX011 (ip), vehicle: methylcellulose (MC)) was 134 % of control [7 of 10 alive].

In the case of `Cn1cnc2c(Cl)nc(C(F)(F)F)nc21`, the survivor count (dose: 60.0 mg/kg/injection, schedule: Q01DX011 (ip), vehicle: carboxymethylcellulose (CMC)) is reported as 4 of 10.

`Nc1nc(SCc2ccccc2)c2[nH]cnc2n1` was tested, and the T/C (dose: 0.37 mg/kg/injection, schedule: Q01DX011 (im), vehicle: carboxymethylcellulose (CMC)) was 139 % of control, the T/C (dose: 0.75 mg/kg/injection, schedule: Q01DX011 (im), vehicle: carboxymethylcellulose (CMC)) was 137 % of control and the survivor count (dose: 15.0 mg/kg/injection, schedule: Q01DX011 (ip), vehicle: carboxymethylcellulose (CMC)) was 6 of 10. The survivor count (dose: 32.0 mg/kg/injection, schedule: Q01DX011 (ip), vehicle: carboxymethylcellulose (CMC)) was 1 of 10, the survivor count (dose: 48.0 mg/kg/injection, schedule: Q01DX006 (iv), vehicle: carboxymethylcellulose (CMC)) was 4 of 10 and the survivor count (dose: 64.0 mg/kg/injection, schedule: Q01DX006 (iv), vehicle: carboxymethylcellulose (CMC)) was 1 of 10. For the same molecule, the survivor count (dose: 64.0 mg/kg/injection, schedule: Q01DX011 (im), vehicle: carboxymethylcellulose (CMC)) was 1 of 10.

For `Nc1ncnc2c1cnn2Cc1ccc(Cl)cc1`, the T/C (dose: 9.5 mg/kg/injection, schedule: Q01DX011 (ip), vehicle: carboxymethylcellulose (CMC)) was 143 % of control and the survivor count (dose: 75.0 mg/kg/injection, schedule: Q01DX011 (ip), vehicle: carboxymethylcellulose (CMC)) was 2 of 10.

`O=C1C(Cl)=C(Cl)C(=O)C2=C1C1c3ccccc3C2c2ccccc21` was tested, and the survivor count (dose: 300.0 mg/kg/injection, schedule: Q01DX011 (ip), vehicle: carboxymethylcellulose (CMC)) was 6 of 10 and the survivor count (dose: 700.0 mg/kg/injection, schedule: Q01DX011 (ip), vehicle: carboxymethylcellulose (CMC)) was 4 of 10.

`Nc1nc(Oc2ccc(Cl)cc2)c2n[nH]nc2n1` was tested, and the T/C [1] was 149 % of control.

`Cc1ccc(C(=O)OCC2OC(n3cnc4c(=S)nc(N)[nH]c43)C(OC(=O)c3ccc(C)cc3)C2OC(=O)c2ccc(C)cc2)cc1` (centres undefined) was tested, and the survivor count [1] was 6 of 10 and the survivor count (dose: 800.0 mg/kg/injection, schedule: Q01DX011 (ip), vehicle: carboxymethylcellulose (CMC)) was 0 of 10.

In the case of `Nc1nc(=S)c2[nH]cnc2[nH]1`, the T/C (dose: 0.05 mg/kg/injection, schedule: Q01DX011 (ip), vehicle: methylcellulose (MC)) is reported as 33, 48 [8 of 10 alive], 58, 59, 75 (2×), 76, 76 [9 of 10 alive], 77 [8 of 10 alive], 78, 81 [9 of 10 alive], 85 [9 of 10 alive], 104 % of control, the T/C (dose: 0.1 mg/kg/injection, schedule: Q01DX011 (ip), vehicle: methylcellulose (MC)) is reported as 29 [9 of 10 alive], 39 [9 of 10 alive], 44 [9 of 10 alive], 47, 48, 48 [8 of 10 alive], 48 [9 of 10 alive], 49, 50, 55, 59, 61 [9 of 10 alive], 63 [9 of 10 alive] (2×), 67, 68 [9 of 10 alive], 69, 71, 74, 74 [9 of 10 alive], 98, 109, 120 % of control [9 of 10 alive] and the T/C (dose: 0.5 mg/kg/injection, schedule: Q01DX011 (ip), vehicle: methylcellulose (MC)) is reported as 1 [9 of 10 alive], 2 (2×), 4, 4 [9 of 10 alive], 5 [8 of 10 alive], 7 (3×), 7 [8 of 10 alive], 7 [9 of 10 alive], 8 (2×), 10 [9 of 10 alive], 12, 12 [8 of 10 alive], 12 [9 of 10 alive], 13, 13 [8 of 10 alive], 15, 18 [9 of 10 alive], 19, 26 [9 of 10 alive], 36, 44 % of control [9 of 10 alive]. For the same molecule, the T/C [2] was 1, 2, 3 [8 of 10 alive], 3 [9 of 10 alive] (2×), 4 (3×), 5 (3×), 5 [9 of 10 alive], 6 (2×), 6 [7 of 10 alive], 6 [8 of 10 alive] (2×), 6 [9 of 10 alive] (2×), 7 [9 of 10 alive] (2×), 8, 11 [9 of 10 alive], 14 % of control, the survivor count [2] was 6 of 10 and the survivor count (dose: 2.0 mg/kg/injection, schedule: Q01DX011 (ip), vehicle: carboxymethylcellulose (CMC)) was 2 of 10. For the same molecule, the T/C [3] was 3 [8 of 10 alive] (2×), 4, 4 % of control [7 of 10 alive], the survivor count [3] was 2 of 10, 4 of 10, 6 of 10 and the T/C [4] was 1 [7 of 10 alive] (2×), 2, 2 [7 of 10 alive], 2 [8 of 10 alive], 2 [9 of 10 alive], 3 [7 of 10 alive], 7 % of control [8 of 10 alive]. For the same molecule, the survivor count [4] was 1 of 10, 2 of 10, 3 of 10, 4 of 10, 5 of 10, 5 of 9, 6 of 10, the survivor count (dose: 4.0 mg/kg/injection, schedule: Q01DX011 (ip), vehicle: methylcellulose (MC)) was 1 of 10 and the survivor count (dose: 4.0 mg/kg/injection, schedule: Q01DX011 (ip), vehicle: saline) was 6 of 10. The survivor count (dose: 5.0 mg/kg/injection, schedule: Q01DX011 (ip), vehicle: methylcellulose (MC)) was 1 of 10, 2 of 10, 3 of 10, 4 of 10, 5 of 10 and the survivor count (dose: 8.0 mg/kg/injection, schedule: Q01DX011 (ip), vehicle: saline) was 6 of 10.

`O=C(O)CCCc1ccc(N(CCCl)CCCl)cc1` was tested, and the survivor count (dose: 16.0 mg/kg/injection, schedule: Q01DX011 (ip), vehicle: saline) was 1 of 10, the survivor count [5] was 4 of 10 and the survivor count (dose: 1450.0 micrograms/kg/injection, schedule: Q01DX011 (ip), vehicle: carboxymethylcellulose (CMC)) was 4 of 10.

With `CS(=O)(=O)OCCCl` the T/C (dose: 20.13 mg/kg/injection, schedule: Q01DX011 (ip), vehicle: carboxymethylcellulose (CMC)) was 134 % of control, the T/C (dose: 28.72 mg/kg/injection, schedule: Q01DX011 (ip), vehicle: carboxymethylcellulose (CMC)) was 136 % of control [8 of 10 alive] and the T/C (dose: 80.5 mg/kg/injection, schedule: Q01DX011 (ip), vehicle: carboxymethylcellulose (CMC)) was 145 % of control. For the same molecule, the survivor count (dose: 155.0 mg/kg/injection, schedule: Q01DX011 (ip), vehicle: carboxymethylcellulose (CMC)) was 6 of 10, the survivor count (dose: 161.0 mg/kg/injection, schedule: Q01DX011 (ip), vehicle: carboxymethylcellulose (CMC)) was 1 of 10 and 3 of 10 and the survivor count (dose: 167.0 mg/kg/injection, schedule: Q01DX011 (ip), vehicle: carboxymethylcellulose (CMC)) was 5 of 10.

For `Nc1nc2c(nnn2C2OC(CO)C(O)C2O)c(=O)[nH]1` (centres undefined), the survivor count [5] was 5 of 10.

`Cc1ccc(N=Nc2c(S(=O)(=O)O)cc3cc(NC(=O)Nc4ccc5c(O)c(N=Nc6ccc7cc(S(=O)(=O)O)ccc7c6)c(S(=O)(=O)O)cc5c4)ccc3c2O)c(C)c1` was tested, and the survivor count (dose: 65.0 mg/kg/injection, schedule: Q01DX011 (ip), vehicle: carboxymethylcellulose (CMC)) was 2 of 10.

With `O=C(O)c1cccc2c3c(cc([N+](=O)[O-])c12)CCCC3` the survivor count (dose: 0.37 mg/kg/injection, schedule: Q01DX011 (ip), vehicle: carboxymethylcellulose (CMC)) was 6 of 10.

`CCCNc1ncnc2c1cnn2C` was tested, and the survivor count [5] was 3 of 10.

In the case of `CC1(C)O[C@@H]2C[C@H]3[C@@H]4CCC5=CC(=O)C=C[C@]5(C)[C@@]4(F)[C@@H](O)C[C@]3(C)[C@]2(C(=O)CO)O1`, the survivor count (dose: 10.0 mg/kg/injection, schedule: Q01DX011 (sc), vehicle: steroid suspending solution) is reported as 1 of 10, the survivor count (dose: 12.0 mg/kg/injection, schedule: Q01DX011 (sc), vehicle: steroid suspending solution) is reported as 1 of 12 and the survivor count (dose: 15.0 mg/kg/injection, schedule: Q01DX011 (sc), vehicle: steroid suspending solution) is reported as 4 of 10. For the same molecule, the survivor count (dose: 30.0 mg/kg/injection, schedule: Q01DX011 (sc), vehicle: steroid suspending solution) was 0 of 10 and the survivor count (dose: 60.0 mg/kg/injection, schedule: Q01DX011 (sc), vehicle: steroid suspending solution) was 0 of 10.

Source: PubChem BioAssay AID180 (DTP/NCI, 2004)
